Results from paper PMC6588558.

By UniProt entry, the sequences of proteins in these tests, tags left out. Residues count along the entry.
UniProt P02768, residues 25-609: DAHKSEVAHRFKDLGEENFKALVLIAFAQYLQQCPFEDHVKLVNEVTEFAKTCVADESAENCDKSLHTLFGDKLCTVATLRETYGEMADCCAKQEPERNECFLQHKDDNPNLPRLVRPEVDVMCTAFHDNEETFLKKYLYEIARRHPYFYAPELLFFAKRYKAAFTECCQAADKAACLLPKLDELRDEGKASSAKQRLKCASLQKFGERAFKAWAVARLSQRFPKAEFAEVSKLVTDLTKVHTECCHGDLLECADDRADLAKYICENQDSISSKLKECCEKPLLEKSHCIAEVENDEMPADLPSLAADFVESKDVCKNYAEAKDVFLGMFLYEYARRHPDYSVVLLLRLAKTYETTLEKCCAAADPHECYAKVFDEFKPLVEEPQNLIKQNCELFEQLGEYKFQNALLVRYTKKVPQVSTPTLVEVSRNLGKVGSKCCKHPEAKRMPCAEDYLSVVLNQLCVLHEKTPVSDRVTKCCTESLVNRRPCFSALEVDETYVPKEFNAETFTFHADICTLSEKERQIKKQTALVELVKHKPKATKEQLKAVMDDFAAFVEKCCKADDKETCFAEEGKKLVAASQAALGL

Molecular target: M1 protein (S. pyogenes) (UniProt Q99XV0)
Assay: affinity purification with mass spectrometry; AP-DIA: 10 μg affinity-tagged bait on Strep-Tactin Sepharose beads, pooled normal human plasma (100 μl) or saliva (200 μl), 37 °C, 1 h, washed with ice-cold PBS, eluted with biotin; DIA-MS; sfGFP as negative control; only the target purified

“human serum albumin (of plasma) (from UniProt P02768 25-609)” was tested, and the binding was “binds”.

These are yes or no findings as the source states them, for the method shown. Binding seen in cells or lysates may run through a third protein. A yes stands for co-enrichment or nearness to the bait. Other partners may have been found.
